Experimental data from PMC11094088, “Molecular mechanism of Oxr1p mediated disassembly of yeast V-ATPase” (EMBO Reports, 2024).
No constants are given. Whether binding was seen depends on the method and setting. In cells and extracts the contact can be indirect. Some entries that bind do so weakly or less than the wild type. Tags and fused reporters may be left off the sequences shown. Blank lines part the entries; values can stand above or below the binder they belong to.

What was measured:
[1] = target: T1, recombinant N-terminally 7×His tagged biotinylated Oxr1p (bio-Oxr1p) (yeast) (UniProt Q08952); experiment: pull-down; purified vacuoles incubated with bio-Oxr1p 30 min at room temperature, ultracentrifuged; supernatant incubated with buffer or 4 mM MgAMP-PNP 30 min at 4 °C; bio-Oxr1p captured on streptavidin beads 60 min at 4 °C; western blot; only the target purified
T1 sequence (chain, biotin on the Avi tag (incomplete biotinylation)): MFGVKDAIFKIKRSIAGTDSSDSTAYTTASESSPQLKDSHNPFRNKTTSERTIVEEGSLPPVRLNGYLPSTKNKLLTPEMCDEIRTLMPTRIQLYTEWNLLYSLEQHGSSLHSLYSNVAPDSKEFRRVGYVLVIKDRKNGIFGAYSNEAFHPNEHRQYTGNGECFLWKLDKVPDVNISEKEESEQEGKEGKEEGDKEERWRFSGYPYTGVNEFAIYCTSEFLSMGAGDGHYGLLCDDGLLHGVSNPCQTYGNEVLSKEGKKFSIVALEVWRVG

[2] = target: T1, recombinant N-terminally 7×His tagged biotinylated Oxr1p (bio-Oxr1p) (yeast); experiment: pull-down; as a5, but supernatant incubated with 4 mM MgATP 30 min at 4 °C before capture of bio-Oxr1p on streptavidin beads; only the target purified

binding [1]: binds | binding [2]: no binding (condition: with 4 mM MgATP)
B1: V1 subunit H (Vma13p), endogenous, from vacuoles (protein, UniProt P41807 1-478)
chain: MGATKILMDSTHFNEIRSIIRSRSVAWDALARSEELSEIDASTAKALESILVKKNIGDGLSSSNNAHSGFKVNGKTLIPLIHLLSTSDNEDCKKSVQNLIAELLSSDKYGDDTVKFFQEDPKQLEQLFDVSLKGDFQTVLISGFNVVSLLVQNGLHNVKLVEKLLKNNNLINILQNIEQMDTCYVCIRLLQELAVIPEYRDVIWLHEKKFMPTLFKILQRATDSQLATRIVATNSNHLGIQLQYHSLLLIWLLTFNPVFANELVQKYLSDFLDLLKLVKITIKEKVSRLCISIILQCCSTRVKQHKKVIKQLLLLGNALPTVQSLSERKYSDEELRQDISNLKEILENEYQELTSFDEYVAELDSKLLCWSPPHVDNGFWSDNIDEFKKDNYKIFRQLIELLQAKVRNGDVNAKQEKIIIQVALNDITHVVELLPESIDVLDKTGGKADIMELLNHSDSRVKYEALKATQAIIGYTFK

binding [1]: binds | binding [2]: no binding (condition: with 4 mM MgATP)
B2: V1 subunit C (Vma5p), endogenous, from vacuoles (protein, UniProt P31412 1-392)
chain: MATALYTANDFILISLPQNAQPVTAPGSKTDSWFNETLIGGRAFVSDFKIPEFKIGSLDTLIVESEELSKVDNQIGASIGKIIEILQGLNETSTNAYRTLPINNMPVPEYLENFQWQTRKFKLDKSIKDLITLISNESSQLDADVRATYANYNSAKTNLAAAERKKTGDLSVRSLHDIVKPEDFVLNSEHLTTVLVAVPKSLKSDFEKSYETLSKNVVPASASVIAEDAEYVLFNVHLFKKNVQEFTTAAREKKFIPREFNYSEELIDQLKKEHDSAASLEQSLRVQLVRLAKTAYVDVFINWFHIKALRVYVESVLRYGLPPHFNIKIIAVPPKNLSKCKSELIDAFGFLGGNAFMKDKKGKINKQDTSLHQYASLVDTEYEPFVMYIINL
